These are yes or no findings as the source states them, for the method shown. Binding seen in cells or lysates may run through a third protein. Binding calls can cover weak binding; strength is not graded here.
Molecular target: GFP-KASH5ΔK (human)
Assay: co-IP; GFP-Trap magnetic agarose beads on lysates of HeLaM cells transiently expressing the GFP-tagged bait; endogenous preys detected by immunoblot; 50 mM Tris pH 7.5, 10 mM NaCl, 2.5 mM MgCl2, 1 mM DTT, 0.01% digitonin; 2 h at 4°C

binding: binds
B1: Lissencephaly-1 (LIS1) (protein, UniProt P43034 1-410)
chain: MVLSQRQRDELNRAIADYLRSNGYEEAYSVFKKEAELDVNEELDKKYAGLLEKKWTSVIRLQKKVMELESKLNEAKEEFTSGGPLGQKRDPKEWIPRPPEKYALSGHRSPVTRVIFHPVFSVMVSASEDATIKVWDYETGDFERTLKGHTDSVQDISFDHSGKLLASCSADMTIKLWDFQGFECIRTMHGHDHNVSSVAIMPNGDHIVSASRDKTIKMWEVQTGYCVKTFTGHREWVRMVRPNQDGTLIASCSNDQTVRVWVVATKECKAELREHEHVVECISWAPESSYSSISEATGSETKKSGKPGPFLLSGSRDKTIKMWDVSTGMCLMTLVGHDNWVRGVLFHSGGKFILSCADDKTLRVWDYKNKRCMKTLNAHEHFVTSLDFHKTAPYVVTGSVDQTVKVWECR

— paper PMC10071310
